Test results published in US9403845B2, “Pesticidally active pyridyl- and pyrimidyl- substituted pyrazole derivatives” (Syngenta Participations AG, priority 2012, dated 2016).
Some of these results come from one statement about several compounds together.

What was measured:
[1] = test system: Myzus persicae (Green Peach Aphid); experiment: Activity against Myzus persicae (green peach aphid), mixed population, feeding/residual contact activity, preventive; format: in vivo; conditions: 200 ppm; sprayed sunflower leaf discs; aphid population of mixed ages; 6 days incubation
Source text: Activity Against Myzus persicae (Green Peach Aphid)
(Mixed Population, Feeding/Residual Contact Activity, Preventive)

[2] = test system: Bemisia tabaci (Cotton White Fly); experiment: Activity against Bemisia tabaci (cotton white fly), feeding/residual contact activity, preventive; format: in vivo; conditions: 200 ppm; sprayed cotton leaf discs; 12 to 18 adults; 6 days after infestation
Experimental: Activity Against Bemisia tabaci (Cotton White Fly)
(Feeding/Residual Contact Activity, Preventive)
Cotton leaf discs were placed on agar in a 24-well microtiter plate and sprayed with test solutions. After drying, the leaf discs were infested with 12 to 18 adults. After an incubation period of 6 days after infestation, samples were checked for mortality and special effects (e.g. phytotoxicity).

Row | SMILES | activity (mortality) [1] | activity (mortality and special effects) [2]
1 | CON=C1CCCc2ccc(-c3cnn(-c4cccnc4)c3)nc21 [Compound 1.002] | over 80% | over 80%
2 | CCON=C1CCCc2ccc(-c3cnn(-c4cccnc4)c3)nc21 [Compound 1.003] | over 80% | over 80%
3 | CCCON=C1CCCc2ccc(-c3cnn(-c4cccnc4)c3)nc21 [Compound 1.004] | over 80% | over 80%
4 | C=CCON=C1CCCc2ccc(-c3cnn(-c4cccnc4)c3)nc21 [Compound 1.006] | over 80% | –
5 | CCON=C1CCOc2ccc(-c3cnn(-c4cccnc4)c3)nc21 [Compound 1.009] | over 80% | over 80%
6 | CC(C)ON=C1CCOc2ccc(-c3cnn(-c4cccnc4)c3)nc21 [Compound 1.011] | over 80% | over 80%
7 | C=CCON=C1CCOc2ccc(-c3cnn(-c4cccnc4)c3)nc21 [Compound 1.012] | over 80% | over 80%
8 | Cc1nn(-c2cccnc2)cc1-c1ccc2c(n1)C(=NOCC1CC1)CCC2 [Compound 1.025] | over 80% | over 80%
9 | CON=C1CCCc2ccc(-c3cn(-c4cccnc4)nc3C)nc21 [Compound 1.026] | over 80% | over 80%
10 | CCON=C1CCCc2ccc(-c3cn(-c4cccnc4)nc3C)nc21 [Compound 1.027] | over 80% | over 80%
11 | C#CCON=C1CCCc2ccc(-c3cn(-c4cccnc4)nc3C)nc21 [Compound 1.028] | over 80% | over 80%
12 | Cc1nn(-c2cccnc2)cc1-c1ccc2c(n1)C(=NOCC=CCl)CCC2 [Compound 1.029] | over 80% | over 80%
13 | C=CCON=C1CCCc2ccc(-c3cn(-c4cccnc4)nc3C)nc21 [Compound 1.030] | over 80% | over 80%
14 | CCON=C1CCCc2sc(-c3cnn(-c4cccnc4)c3)nc21 [Compound 3.003] | over 80% | –
15 | CN(C)N=C1CCCc2ccc(-c3cnn(-c4cccnc4)c3)nc21 [Compound 6.003] | over 80% | over 80%
16 | CNN=C1CCOc2ccc(-c3cnn(-c4cccnc4)c3)nc21 [Compound 6.016] | over 80% | over 80%
17 | COC(=O)N(C)N=C1CCOc2ccc(-c3cnn(-c4cccnc4)c3)nc21 [Compound 6.019] | over 80% | over 80%
18 | Cc1nn(-c2cccnc2)cc1-c1ccc2c(n1)C(=O)CCC2 [Compound 7.001] | – | over 80%
19 | CON=C1CS(=O)(=O)N(C)c2ccc(-c3cnn(-c4cccnc4)c3)nc21 [Compound 8.002] | over 80% | over 80%
